## Percent effect of library compounds

Chains of the proteins cited; added tags and fusions are not shown. Residues count along the entry.
UniProt P9WPC5, whole entry: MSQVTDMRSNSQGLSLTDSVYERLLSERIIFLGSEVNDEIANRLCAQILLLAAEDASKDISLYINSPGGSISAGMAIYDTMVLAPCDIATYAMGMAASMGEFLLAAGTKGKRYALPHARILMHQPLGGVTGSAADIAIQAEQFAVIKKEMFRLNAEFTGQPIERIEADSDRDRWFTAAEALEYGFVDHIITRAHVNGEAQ
UniProt P9WPC3, whole entry partner: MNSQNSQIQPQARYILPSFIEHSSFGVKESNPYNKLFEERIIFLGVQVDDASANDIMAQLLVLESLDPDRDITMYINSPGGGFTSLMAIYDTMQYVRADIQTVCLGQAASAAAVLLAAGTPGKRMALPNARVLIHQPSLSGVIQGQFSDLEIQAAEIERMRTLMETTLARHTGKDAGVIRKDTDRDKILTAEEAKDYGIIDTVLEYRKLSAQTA
UniProt P9WNZ1, whole entry: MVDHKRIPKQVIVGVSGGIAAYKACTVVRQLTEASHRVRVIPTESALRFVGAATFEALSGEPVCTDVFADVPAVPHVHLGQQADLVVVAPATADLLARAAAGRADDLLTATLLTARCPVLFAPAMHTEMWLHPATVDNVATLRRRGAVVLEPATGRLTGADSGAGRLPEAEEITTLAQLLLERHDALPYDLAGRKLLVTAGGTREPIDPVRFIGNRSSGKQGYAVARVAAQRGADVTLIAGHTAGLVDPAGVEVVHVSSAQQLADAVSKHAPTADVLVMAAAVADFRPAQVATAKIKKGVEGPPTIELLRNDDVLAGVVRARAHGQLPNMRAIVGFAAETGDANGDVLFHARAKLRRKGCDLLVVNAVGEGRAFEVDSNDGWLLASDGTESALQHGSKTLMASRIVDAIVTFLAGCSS
UniProt A4I591, 1-473: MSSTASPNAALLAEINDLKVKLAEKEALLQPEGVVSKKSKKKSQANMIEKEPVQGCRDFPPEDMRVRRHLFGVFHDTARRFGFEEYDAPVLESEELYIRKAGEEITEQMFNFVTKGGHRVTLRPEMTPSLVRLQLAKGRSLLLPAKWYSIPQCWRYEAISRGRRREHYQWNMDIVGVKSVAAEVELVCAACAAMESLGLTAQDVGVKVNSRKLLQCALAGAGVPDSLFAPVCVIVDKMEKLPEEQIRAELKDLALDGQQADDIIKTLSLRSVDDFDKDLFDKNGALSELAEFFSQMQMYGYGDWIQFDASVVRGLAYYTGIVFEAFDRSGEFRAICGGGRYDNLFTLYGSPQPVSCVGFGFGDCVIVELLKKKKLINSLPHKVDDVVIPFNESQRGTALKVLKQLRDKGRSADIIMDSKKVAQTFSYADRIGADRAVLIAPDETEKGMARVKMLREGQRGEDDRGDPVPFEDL

The values are deposited in ChEMBL (CHEMBL3988442, “University of Dundee, Small-Polar-MMV Screening Library” (2021)).

ClpP1P2: 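Protease assay of ClpP1P2, read by the AMC dye that it sets free. Target: ClpP1P2, Mycobacterium tuberculosis (UniProt P9WPC5 and UniProt P9WPC3). Compounds at 50 µM. Higher reads as stronger inhibition, judged from the few compounds that gave an IC50. Most other retested compounds had strongly negative values. Of about 69,000 compounds tested this way, about 10 (0.015%) reached 50% or more in at least one test.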
CoaBC: 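Enzyme assay of CoaBC with a phosphate dye (Biomol Green) read at 650 nm. Target: Coenzyme A biosynthesis protein CoaBC, Mycobacterium tuberculosis (UniProt P9WNZ1). Tested at 30 µM. Direction is inferred from only a few compounds that gave an IC50; most scored high, so higher reads as stronger inhibition. Most strong results did not repeat in a second test. Size under these conditions: about 67,000 compounds, about 40 of them at 50% or above in at least one test.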
Leishmania in macrophages: 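Cell assay of Leishmania donovani living inside macrophages; the read-out is not stated. Concentration: 30 µM. The record gives no direction; compounds that gave an IC50 in retests scored well above the rest, so higher reads as stronger inhibition. About 69,000 compounds were tested under these conditions; 1.5% (about 1,000) showed 50% or more at least once.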
LiHisRS: 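Enzyme assay of histidyl-tRNA synthetase; the read-out is not stated. Target: Histidine-tRNA ligase, Leishmania infantum (UniProt A4I591). Compounds at 30 µM. The record gives no direction; compounds that gave an IC50 in retests scored well above the rest, so higher reads as stronger inhibition. The assay is labelled LdHisRS but filed under L. infantum. Size under these conditions: about 69,000 compounds, about 410 of them at 50% or above in at least one test.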

The filed quantity is “Percent Effect” (%). How 0% and 100% were set is not recorded. Most values in the screen are low, and negative values occur. This is an unselected part of the compounds tested. Two or more numbers in one place are separate tests of the same structure; such repeats can differ widely. A dash means the value is not listed here; it may have been measured.

SMILES | ClpP1P2 | CoaBC | Leishmania in macrophages | LiHisRS
Cc1nc(Nc2nnc(C)s2)cc(C2CCCN2S(C)(=O)=O)n1 (stereo unspecified) | -8.643 | 0.1239 | 10.2 | 0
NC(=O)CN1CCCN(C(=O)Cc2ccc3ccccc3c2)CC1 | -5.026 | 1.695 | -26.19 | 1.351
Cc1cc(C(=O)N2CCC(O)(Cn3ccc4ccncc43)CC2)on1 | -11.87 | 1.456 | 16.9 | 1.429
O=C(NC1CCN(c2cccc(OC(F)(F)F)c2)C1=O)C1CC1 (stereo unspecified) | -1.22 | 12.4 | 21.11 | 11.61
CC(c1nc(C(C)(C)C)no1)N1CCC(N2CCCC2)CC1 (stereo unspecified) | 1.448 | -5.742 | -24.03 | 1.667
O[C@@H]1C[C@@H](c2nc(-c3ccc(F)cc3)no2)N(C2CCOCC2)C1 | -5.977 | -6.402 | -5.132 | 6.757
CNC(=O)C1CCN(C(=O)CCn2cccn2)CC1 | 4.491 | -1.349 | -5.559 | 0
COCCNC(=O)c1nc(NS(=O)(=O)c2ccccc2)sc1C | -2.97 | 3.646 | -17.98 | 7.865
[H][C@@]12CCN(C(=O)c3ccc[nH]3)[C@]1([H])CCC(=O)N2Cc1csc(C)n1 | - | - | 39.13 | -
CC(=O)NCC(=O)N1C[C@H](OCc2cccnc2)[C@H]2COC[C@H]21 | -12.34 | 1.863 | - | 7.692
COc1ncccc1CN1CCc2[nH]cnc2C1CCSC (stereo unspecified) | 9.53 | 6.027 | -2.194 | 16.13
CCOC(C)c1nc(CN2CCN(Cc3cccnc3)CC2)cs1 (stereo unspecified) | -9.434 | 0.7335 | 14.45 | 11.29
[H][C@@]12CCN(C(=O)COC)[C@]1([H])C(=O)N(CCC)C(=O)N2Cc1cccs1 | - | - | -4.958 | -
CN(C)[C@@H]1CCN(C(=O)CC2CC2)[C@H]1Cc1cnn(C)c1 | 6.578 | -0.75 | - | 24
Cn1cc(C(=O)Nc2ccc3c(c2)N(C(=O)c2ccco2)CC3)nn1 | -11.11 | -5.138 | -0.2438 | 0
CCn1cc(C(=O)NCC(C)(CC)N2CCOCC2)c2ccccc21 (stereo unspecified) | -3.234 | 6.667 | 16.69 | 12.9
CO[C@H]1COCCN(C(=O)c2ccc(F)cc2)C1 | -9.209 | 4.519 | 15.74 | 37.84
CN(CCSc1ccccc1)C(=O)C(c1cccnc1)N1CCOCC1 (stereo unspecified) | 9.835 | -0.6242 | -4.087 | 9.917
CCOC(C)c1noc(CN(C)C(=O)c2ccncc2)n1 (stereo unspecified) | -11.82 | -0.6479 | -1.248 | -2.857
CC(C)=CCN1CCN(C(=O)c2cc(C)n[nH]2)[C@H]2CS(=O)(=O)C[C@H]21 | -11.08 | 0.8475 | - | 22.83
CCN(Cc1ccncc1)C(=O)C(C)n1ccnc1C(C)C (stereo unspecified) | -6.677 | 4.444 | 12.88 | 16.78
CCc1sc(C(=O)N2CCC(Nc3ccc(C)nn3)CC2)cc1C | -24.92 | 2.611 | 19.5 | 17.24
Cc1nnc(C(C)NCC2(c3ccc(Cl)cc3)CCOCC2)o1 (stereo unspecified) | 2.411 | 0.4592 | 14.38 | 0
COCCN1CCC2(COCCN(Cc3ccc4c(c3)OCO4)C2)C1.O=C(O)C(F)(F)F.O=C(O)C(F)(F)F (stereo unspecified) | - | - | 23.17 | -
Cc1nn(C(C)C)c(C)c1S(=O)(=O)Nc1cccc(F)c1 | -0.06109 | - | -0.457 | 31.43
[H][C@]12CCN(Cc3cnn(C)c3)[C@@]1([H])C[C@@H](C(=O)N1CCOCC1)O2 | - | - | -2.614 | -
CC(C)(C)c1cnc(CN2CCC(NC(=O)CC3CCCC3)CC2)o1 | -5.144 | 4.032 | 18.89 | 31.58
COc1ncnc2c1CCN(Cc1cccs1)CC2.O=C(O)C(F)(F)F | - | - | -7.824 | -
CCOc1c(Cl)cc(/C=C/c2ncc(C(=O)O)s2)cc1OC | -38.26 | 3.106 | 26.63 | 14.04
C[C@@H]1CN(Cc2cccnc2)C[C@]12CCN(CCN1CCCC1)C2=O.O=C(O)C(F)(F)F.O=C(O)C(F)(F)F.O=C(O)C(F)(F)F | - | - | 15.77 | -
COC(=O)CNC(=O)N1CCC2(CC1)CC(c1ccccc1)CN(C)C2 (stereo unspecified) | -2.861 | 1.587 | -1.759 | -5.556
Cc1ccc(C(CNC(=O)NCc2cc[nH]n2)N2CCOCC2)o1 (stereo unspecified) | 17.59 | 1.813 | -0.03444 | 8.511
CCc1nc(NC2CCN(CC(=O)NC3CC3)CC2)c2cnn(C)c2n1 | 18.03 | -2.552 | 6.372 | -8.696
O=C(Nc1cccnc1)NC1(c2cccc(F)c2)CC1 | -8.679 | 2.301 | 10.84 | 10.42
O=C(O)C(F)(F)F.[H][C@@]12CCCO[C@]1([H])[C@@H](NC(=O)C1CC1)CN2Cc1ccsc1 | - | - | 10.63 | -
CC(C)NC(=O)[C@@H]1Cc2[nH]cnc2CN1CCCc1ccccc1 | -14.79 | -36.74 | -15.85 | 24.32
CCOc1c(OC)cc(/C=C/c2ncc(C(=O)NC)s2)cc1OC | -4.83 | 8.73 | 17.01 | 4.464
c1cc(N2CCCCC2)ccc1-c1noc(CN2CCOCC2)n1 | -3.743 | 4.662 | -19.78 | 7.092
CC(NC(=O)NCCc1cnn(C)c1)c1ccc(Cl)s1 (stereo unspecified) | 10.55 | 5.242 | 22.86 | 10.53
Cn1ccc(CN2CCC3(CCCN3CC3CC3)CC2)n1.O=C(O)C(F)(F)F.O=C(O)C(F)(F)F | - | - | 41.38 | -
O=C(c1cc(-c2ccn(CC3CC3)n2)n2ccccc12)N1CCOCC1 | -138.2 | -4.713 | 88.37 | 32
CNC(=O)CN1CCC(OCC2CCCO2)CC1 (stereo unspecified) | -0.6535 | 8.171 | -15.98 | 13.51
CCS(=O)(=O)Nc1ccc2c(c1)C1(CCOCC1)CN2C | -10.6 | 0.8663 | - | 51.49
CN1CCN(CCNC(=O)c2sccc2C2CC2)CC1 | -6.697 | -10.93 | 11.96 | 9.333
Cc1nn(C)c2cn(CC(=O)N3CCc4ccccc4C3)nc12 | -8.773 | 5.357 | -1.168 | 20.99
O=C(CN(C1=NCCCC1)c1ccccc1)c1ccc2c(c1)OCCO2 | -15.52 | 5.57 | - | 10.53
Cc1nc(C)c(CNC[C@@]2(COc3cccnc3)C[C@@H](O)[C@@H](O)C2)s1 | -4.258 | 12.14 | - | 12.16
Cc1ccsc1CN1C[C@@H]2COC[C@]2(COCC(=O)N(C)C)C1 | -15.66 | 0.2469 | - | 5.556
Cc1cc(CNC(=O)NC(C)c2ccncc2)no1 (stereo unspecified) | -17.76 | 5 | 2.174 | 6.604
C1=C(CNC2CCc3ncnn3C2)COc2ccccc21 (stereo unspecified) | -8.86 | 21.35 & 10.58 | 7.87 | 6.667
COc1cccc(Nc2nc(C3CCCNC3)c3ccccn23)c1.Cl (stereo unspecified) | - | - | 2.866 | -
CCSc1ccc(NC(=O)NC(C)c2c(C)nn(C)c2C)cn1 (stereo unspecified) | 9.307 | - | 11.63 | 20
Cn1cc(C[C@H]2[C@H](O)CCN2Cc2ccncc2)cn1 | -7.972 | 1 | - | 16
COc1cc(OC)c(C2Nc3cc(Cl)ccc3C3=NCCN32)cc1OC (stereo unspecified) | -1.431 | -1.813 | 15.59 | 16.79
O=C(c1cccnc1SCc1ccccc1)N1CC[C@@H](O)C1 | 15.08 | 5.34 | -9.531 | 7.921
Cn1nnc2c1C(COCc1cccnc1)CN(Cc1ccoc1)C2.O=C(O)C(F)(F)F.O=C(O)C(F)(F)F (stereo unspecified) | - | - | 15.47 | -
CNS(=O)(=O)CC(=O)N(Cc1ccsc1)c1ccccc1 | 7.721 | -3.474 | 2.34 | 21.28
COC(=O)N1CCC(Nc2cccc(F)c2C(C)=O)CC1 | -0.5414 | 17.14 | -14.33 | 6.25
CCN(CC)C(=O)N1CCN(Cc2cnc(C)nc2)[C@H]2CS(=O)(=O)C[C@H]21 | 1.234 | 3.767 | - | 21.74
COc1cccc(Cn2ncnc2CCC(C)N2CCN(C)CC2)c1 (stereo unspecified) | -14.28 | -0.8805 | 19.1 | 12.39
O=C(O)C(F)(F)F.[H][C@@]12C[C@@H](c3nnc(C)[nH]3)O[C@]1([H])CN(C(=O)c1c(C)noc1C)C2 | - | - | 21.52 | -
Cc1cnc(C(=O)N[C@H]2CN(CCS(C)(=O)=O)C[C@@H]2C2CC2)cn1 | -5.651 | -3.289 | -33.15 | -7.527
FC(F)(F)c1nc(NC2CCc3ncnn3C2)c2ccccc2n1 (stereo unspecified) | 1.912 | 6.958 | -21.34 | 28
Cc1sc2nc(CCN)nc(N3CC(N4CCCCC4)C3)c2c1C | 4.167 | -22.4 | 85.94 | 38.46

6 of the entries, repeated:

SMILES,ClpP1P2,CoaBC,Leishmania in macrophages,LiHisRS
CC(=O)NCC(=O)N1C[C@H](OCc2cccnc2)[C@H]2COC[C@H]21,-12.34,1.863,-,7.692
Cn1ccc(CN2CCC3(CCCN3CC3CC3)CC2)n1.O=C(O)C(F)(F)F.O=C(O)C(F)(F)F,-,-,41.38,-
Cc1nnc(C(C)NCC2(c3ccc(Cl)cc3)CCOCC2)o1 (stereo unspecified),2.411,0.4592,14.38,0
COCCNC(=O)c1nc(NS(=O)(=O)c2ccccc2)sc1C,-2.97,3.646,-17.98,7.865
CN(CCSc1ccccc1)C(=O)C(c1cccnc1)N1CCOCC1 (stereo unspecified),9.835,-0.6242,-4.087,9.917
CNS(=O)(=O)CC(=O)N(Cc1ccsc1)c1ccccc1,7.721,-3.474,2.34,21.28